Measurements reported in publication PMC5713396.
No constants are given. Whether binding was seen depends on the method and setting. In cells and extracts the contact can be indirect. Here binding means that the protein was enriched with, or labelled near, the bait; the list need not be complete. Sequences can lack the tags named with a protein.

Protein sequences, listed by entry. Tags and fused reporters are not part of them. Lines headed by an entry give the natural chain unless they say otherwise; changes in a name come on top.
UniProt Q9LUW5: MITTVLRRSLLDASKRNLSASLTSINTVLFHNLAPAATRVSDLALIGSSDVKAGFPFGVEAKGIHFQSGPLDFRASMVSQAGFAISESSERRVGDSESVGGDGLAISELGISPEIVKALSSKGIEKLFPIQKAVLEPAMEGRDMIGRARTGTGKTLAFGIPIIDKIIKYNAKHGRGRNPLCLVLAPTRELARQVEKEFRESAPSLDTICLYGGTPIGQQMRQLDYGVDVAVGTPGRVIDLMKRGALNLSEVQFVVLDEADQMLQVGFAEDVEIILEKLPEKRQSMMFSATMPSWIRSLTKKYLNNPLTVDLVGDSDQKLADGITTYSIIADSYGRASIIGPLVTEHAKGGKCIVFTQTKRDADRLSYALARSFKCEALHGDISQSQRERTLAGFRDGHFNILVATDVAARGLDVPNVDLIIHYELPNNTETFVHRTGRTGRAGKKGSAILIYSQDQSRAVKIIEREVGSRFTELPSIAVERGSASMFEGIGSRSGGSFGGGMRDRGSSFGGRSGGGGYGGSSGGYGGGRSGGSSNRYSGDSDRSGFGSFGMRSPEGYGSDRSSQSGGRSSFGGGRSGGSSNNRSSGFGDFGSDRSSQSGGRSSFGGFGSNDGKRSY
UniProt F4I611: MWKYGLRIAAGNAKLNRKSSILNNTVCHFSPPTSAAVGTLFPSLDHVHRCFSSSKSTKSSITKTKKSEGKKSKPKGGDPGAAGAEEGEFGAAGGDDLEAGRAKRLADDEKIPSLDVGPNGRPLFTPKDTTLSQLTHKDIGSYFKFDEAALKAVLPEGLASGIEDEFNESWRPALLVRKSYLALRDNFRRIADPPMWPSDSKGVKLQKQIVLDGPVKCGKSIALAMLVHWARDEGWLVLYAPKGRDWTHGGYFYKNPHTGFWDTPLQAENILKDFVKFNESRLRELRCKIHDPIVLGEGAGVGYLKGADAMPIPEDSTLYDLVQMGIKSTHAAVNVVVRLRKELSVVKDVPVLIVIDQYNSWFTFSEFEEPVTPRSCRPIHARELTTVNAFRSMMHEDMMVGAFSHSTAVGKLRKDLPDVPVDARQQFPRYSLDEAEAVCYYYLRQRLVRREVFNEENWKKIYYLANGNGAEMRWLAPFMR

T1: recombinant nMAT2 protein with a hemagglutinin (3HA) tag at its carboxyl terminus (Arabidopsis thaliana) (UniProt Q9FJR9)
T1 sequence: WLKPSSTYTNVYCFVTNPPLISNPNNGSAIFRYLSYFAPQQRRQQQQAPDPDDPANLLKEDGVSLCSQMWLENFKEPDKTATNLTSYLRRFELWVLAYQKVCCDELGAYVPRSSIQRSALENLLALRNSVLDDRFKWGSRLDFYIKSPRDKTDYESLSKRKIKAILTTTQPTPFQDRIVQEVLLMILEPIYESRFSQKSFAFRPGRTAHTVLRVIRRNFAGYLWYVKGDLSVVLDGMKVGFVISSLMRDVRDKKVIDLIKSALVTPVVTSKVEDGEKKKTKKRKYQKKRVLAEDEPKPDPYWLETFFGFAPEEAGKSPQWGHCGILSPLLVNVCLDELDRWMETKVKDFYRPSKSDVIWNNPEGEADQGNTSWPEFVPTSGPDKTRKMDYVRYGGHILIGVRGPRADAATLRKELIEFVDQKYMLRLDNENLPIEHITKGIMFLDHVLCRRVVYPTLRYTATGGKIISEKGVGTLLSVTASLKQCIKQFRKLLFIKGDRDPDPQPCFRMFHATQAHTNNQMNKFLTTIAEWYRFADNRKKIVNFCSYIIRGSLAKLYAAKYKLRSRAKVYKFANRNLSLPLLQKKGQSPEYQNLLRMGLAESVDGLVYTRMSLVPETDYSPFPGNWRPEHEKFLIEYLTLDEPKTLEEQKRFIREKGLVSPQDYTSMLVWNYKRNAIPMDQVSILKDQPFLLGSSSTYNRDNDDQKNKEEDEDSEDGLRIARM


What follows are molecules tested against T1, recombinant nMAT2 protein with a hemagglutinin (3HA) tag at its carboxyl terminus (Arabidopsis thaliana) (assay: affinity purification with mass spectrometry; mitochondria extracts of nmat2/nMAT2-HA plants solubilized with 1% NP-40 in 150 mM NaCl, 10 mM sodium phosphate pH 7.2; anti-HA antibodies on protein A/G sepharose, 4 °C, 16 h; washes with 0.6 M NaCl, 0.5% NP-40, 50 mM Tris-HCl pH 8.3; LC-MS/MS; control: plants with empty vector).

Molecule | binding
RNA helicase PMH2 (from UniProt Q9LUW5) | binds
ribosomal factor At1g16870 (from UniProt F4I611) | binds
pentatricopeptide repeat (PPR) protein At1g10270 (protein, UniProt Q9SY69 1-913) MSLSHLLRRLCTTTTTTRSPLSISFLHQRIHNISLSPANEDPETTTGNNQDSEKYPNLNPIPNDPSQFQIPQNHTPPIPYPPIPHRTMAFSSAEEAAAERRRRKRRLRIEPPLHALRRDPSAPPPKRDPNAPRLPDSTSALVGQRLNLHNRVQSLIRASDLDAASKLARQSVFSNTRPTVFTCNAIIAAMYRAKRYSESISLFQYFFKQSNIVPNVVSYNQIINAHCDEGNVDEALEVYRHILANAPFAPSSVTYRHLTKGLVQAGRIGDAASLLREMLSKGQAADSTVYNNLIRGYLDLGDFDKAVEFFDELKSKCTVYDGIVNATFMEYWFEKGNDKEAMESYRSLLDKKFRMHPPTGNVLLEVFLKFGKKDEAWALFNEMLDNHAPPNILSVNSDTVGIMVNECFKMGEFSEAINTFKKVGSKVTSKPFVMDYLGYCNIVTRFCEQGMLTEAERFFAEGVSRSLPADAPSHRAMIDAYLKAERIDDAVKMLDRMVDVNLRVVADFGARVFGELIKNGKLTESAEVLTKMGEREPKPDPSIYDVVVRGLCDGDALDQAKDIVGEMIRHNVGVTTVLREFIIEVFEKAGRREEIEKILNSVARPVRNAGQSGNTPPRVPAVFGTTPAAPQQPRDRAPWTSQGVVHSNSGWANGTAGQTAGGAYKANNGQNPSWSNTSDNQQQQSWSNQTAGQQPPSWSRQAPGYQQQQSWSQQSGWSSPSGHQQSWTNQTAGQQQPWANQTPGQQQQWANQTPGQQQQLANQTPGQQQQWANQTPGQQQQWANQNNGHQQPWANQNTGHQQSWANQTPSQQQPWANQTTGQQQGWGNQTTGQQQQWANQTAGQQSGWTAQQQWSNQTASHQQSQWLNPVPGEVANQTPWSNSVDSHLPQQQEPGPSHECQETQEKKVVELRN | binds
pentatricopeptide repeat (PPR) protein At1g61870 (protein, UniProt Q8LE47 27-408) SSASTILSPDSKTPLTSKEKSKAALSLLKSEKDPDRILEICRAASLTPDCRIDRIAFSAAVENLAEKKHFSAVSNLLDGFIENRPDLKSERFAAHAIVLYAQANMLDHSLRVFRDLEKFEISRTVKSLNALLFACLVAKDYKEAKRVYIEMPKMYGIEPDLETYNRMIKVFCESGSASSSYSIVAEMERKGIKPNSSSFGLMISGFYAEDKSDEVGKVLAMMKDRGVNIGVSTYNIRIQSLCKRKKSKEAKALLDGMLSAGMKPNTVTYSHLIHGFCNEDDFEEAKKLFKIMVNRGCKPDSECYFTLIYYLCKGGDFETALSLCKESMEKNWVPSFSIMKSLVNGLAKDSKVEEAKELIGQVKEKFTRNVELWNEVEAALPQ | binds
ribosomal factor At1g31817 (protein, UniProt Q8VZT8 38-314) GGRFREQVPVSGESANNSGLSNTGRIGSSPEPNPSTLRTFGDMKAGLLNRGVNGFSAPNAPPTFKSSLRSRLPNSLPDQFGQTNPGLPNTGGSGFSAPSLSSYENFTQSSSLLKENSRSGGKSSDLDFVREVIEDEGRRTAGIFSHFQRPNLETNADIIHIKMLRNNTFVTVTDSKGNVKCKATSGSLPDLKGGRKMTNYTADATAENIGRRAKAMGLKSVVVKVNGFTHFGKKKKAIIAFRDGFTNSRSDQNPIVYIEDTTRKAHNGCRLPRKRRV | binds
pentatricopeptide repeat (PPR) protein At1g26460 (protein, UniProt Q9FZD1 116-630) SLLNMFADWTASQRWSDMKQLFEVWVRSLDKNGKPNKPDVNLYNHYLRANLMMGASAGDMLDLVAPMEEFSVEPNTASYNLVLKAMYQARETEAAMKLLERMLLLGKDSLPDDESYDLVIGMHFGVGKNDEAMKVMDTALKSGYMLSTSVFTECVRSCVAKGRTDTLVSIIERCKAVDRNKSLCPSWILCNYIAEVAIQEDNSKLAFYAFEFMFKWITRGEMARPSVIFSVDEGLVVAGLASAARTCSSSLVEGSWTILKQSLRGRKAANPASYIAKINAYASLGNLQKAFTSLHELESAYADSEKEVVEEMLSPFTSLYPLVVACSKKGFETLDEVYFQLESLSQGDTPYKSVAALNCIILGCANTWDLDRAYQTFEAISASFGLTPNIDSYNALLYAFGKVKKTFEATNVFEHLVSIGVKPDSRTYSLLVDAHLINRDPKSALTVVDDMIKAGFEPSRETLKKLRRRCVREMDDENDDQVEALAKKFQIRMGSENRRNMLFNIDYSRGRALNN | binds
pentatricopeptide repeat (PPR) protein At1g55890 (protein, UniProt Q9LG23 20-398) FSSAATVVSEPTAVTAAISPPQKSLTSLVNGERNPKRIVEKFKKACESERFRTNIAVYDRTVRRLVAAKRLHYVEEILEEQKKYRDMSKEGFAARIISLYGKAGMFENAQKVFEEMPNRDCKRSVLSFNALLSAYRLSKKFDVVEELFNELPGKLSIKPDIVSYNTLIKALCEKDSLPEAVALLDEIENKGLKPDIVTFNTLLLSSYLKGQFELGEEIWAKMVEKNVAIDIRTYNARLLGLANEAKSKELVNLFGELKASGLKPDVFSFNAMIRGSINEGKMDEAEAWYKEIVKHGYRPDKATFALLLPAMCKAGDFESAIELFKETFSKRYLVGQTTLQQLVDELVKGSKREEAEEIVKIAKTNDFLKLKLNLPSQEE | binds
